Measurements from PubChem BioAssay AID1508600 (Functional Genomics Laboratory (NCATS/FGL), 2020).
Out of some 53,000 sequences screened, about 3,700 (7%) were called active.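 Rule for the calls: active = gene knockdowns whose robust z-score for IL-1 alpha signal is at least 2 or at most -2, so actives lie on both sides; inactive = the rest.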 This is one part of the list.

Assay: Components of the Cytosolic LPS Sensing Pathway: Gene Identification via Genome-wide siRNA Screen;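 note: robust z of the log signal after scaling to non-targeting control siRNA wells of the plate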
Settings: RAW264.7 macrophages, IL-1a HTRF, actives lie on both sides, screened at 100 nM (by protocol), cells primed 5 h with Pam3CSK4 first
Summary of the method: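 Using IL-1a HTRF as read-out, the screen measured release from RAW264.7 cells after 48h siRNA knockdown (100 nM), 5 h Pam3CSK4 priming and 24 h cytosolic LipidA. Values were expressed relative to negative-control wells as robust z-scores.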

Row | Sequence | z-score
1 | GCAGAGGGUUUUCCAAGCGTT against Ddx4 | inactive: -0.631
2 | GGCUGUUAAUGCAAAAAAATT against Ern2 | inactive: -0.0576
3 | GGUUCUUCCAAAUGAUCCATT against Ccnh | inactive: -0.505
4 | GGACAUCGAUCCCUUUGACTT against Tsr3 | inactive: -1.13
5 | CCCUCUUGACACGUUCAAGTT against Serpina3n | inactive: 1.09
6 | GGGAUGAAGUUUGAGGACGTT against Mrps11 | inactive: -0.436
7 | GGUAUUCAUUCUUUCAGUCTT against Hoxa1 | inactive: 1.04
8 | UGGUUGUGAUCAACAGAAUTT against Cyp2d12 | inactive: -0.933
9 | GGAAAGGAGUCUGCCAGCUTT against Tef | inactive: -1.29
10 | GCAUGCCUCUCUCAAGUCUTT against Olfr849 | inactive: -1.32
11 | GGAGUACAUAGCUAAUGUGTT against Lemd2 | inactive: -1.12
12 | CGGGAAUAAGAUCUUUCUGTT against Zbtb22 | inactive: 1.43
13 | GGAAGCCUAUGAACUUAAUTT against Zfp180 | inactive: 0.537
14 | GCUCUCGUGAGAGUUGCCATT against Kash5 | inactive: 0.483
15 | GGGAAUUGCUCAAAGUAAATT against Nqo1 | inactive: -0.13
16 | GGUAUUUGAAUUUCGUCCCTT against Zc3h15 | inactive: 0.122
17 | GGAAUUCUUCUACUUUCAATT against Tpd52l1 | inactive: -1.93
18 | GUAGUAAUAUCAUGGGCCUTT against Olfr339 | inactive: 0.0838
19 | GGAGUUCCAGCAGCUCUAUTT against Vsnl1 | inactive: 0.741
20 | GGAAGAGGCUGAGAAGCUATT against Pabpn1 | inactive: -1.69
21 | GAUUAGCAUCCAUGAACACTT against Tcl1b2 | active: 2.16
22 | GGAAAAGAUCUGUUUCUCATT against Cdhr5 | inactive: -0.204

Row | Sequence | z-score
23 | GGAAAAUAGGGCGACAAAUTT against Tdrd7 | inactive: 0.673
24 | ACGGUACUCAGUGCAAGCATT against Scarf1 | inactive: 1.69
25 | GGUGACAAGCGGAUCUUUCTT against Kcne1 | inactive: 0.291
26 | GCCACUUAACCUUCAAAAGTT against Gtsf2 | inactive: -0.402
27 | GGCAGAAGGCAAAGAAAGGTT against Cyp3a11 | inactive: -0.58
28 | GGAAGGAAGUCUCAACUCGTT against Lhx5 | inactive: -0.945
29 | CAUACCUCCACUACUCAAGTT against Olfr1113 | inactive: -0.575
30 | GAUGGACCAGUACAGAAUUTT against Aph1b | inactive: 1.41
31 | GGUCUUCAAUUUCUUCAAATT against 4930430F08Rik | inactive: 0.928
32 | GGAUCAAAUGAAGAGGGAATT against Skor1 | inactive: -1.54
33 | GCCUAAUGUCAACAUGAAGTT against Elp4 | inactive: -1.16
34 | GGGUAACUGGAUAGGAGAATT against Pi15 | inactive: 0.089
35 | GGGAGUUUGGCAACUACCUTT against Fkbp6 | inactive: -0.668
36 | GGUGCUCAUGCAGGUCCAUTT against Slc25a25 | inactive: -0.356
37 | GCGUGACACUAACAAAAAGTT against Arhgef37 | inactive: -1.33
38 | GCGCGUCUAAAGCCGUAAATT against H1f2 | inactive: 0.219
39 | GGGACUGUGUGUAAAGGACTT against Tmem134 | inactive: -1.21
40 | GGGACAGGUGCCAUUGACATT against Tut7 | inactive: 0.395
41 | GGCUUCCUUUUUGAAGCUATT against Slc35b4 | inactive: 0.258
42 | GGAAAUCACCAUGCCCUCUTT against S100a8 | inactive: -0.0382
43 | GGAUAUCGUCUGCUACCUGTT against Dgkb | inactive: 0.945
44 | GGCCAAAUGGACAAUCCAUTT against Dnah2 | inactive: 1.29

Row | Sequence | z-score
45 | GGAUCUAAGCCUGUUGUGATT against Zfp647 | inactive: -0.82
46 | GGAUAAAGAGUUUUACAGATT against Srgn | inactive: -0.99
47 | GGAUUCAAUAUCAAUUGGATT against Htr2c | inactive: 0.432
48 | GGUACACAAUCUCCAAUGCTT against Rpp30 | inactive: -0.586
49 | GGCUAUGCUGAUCUGAAGATT against Ccdc126 | inactive: 1.67
50 | GGCUUUCGGCAGCAUCUUGTT against Tk1 | inactive: -1.15
51 | GGACAAGAUGAACUUUUCCTT against Pomp | active: -2.85
52 | GGAUAUCAUGGACACUCAUTT against Atg16l1 | inactive: 0.269
53 | GCAAGUCCACCAGACAACATT against Prl3b1 | inactive: -0.215
54 | GCGGAGAAUGGAAAAACUUTT against Enpep | inactive: 1.05
55 | GGAGAACAAGGCAUUCCUGTT against Col10a1 | inactive: -1.08
56 | GGACGUACACAUUUACAAATT against Mettl21a | inactive: 0.000322
57 | GGUGGACUUAUAUGGUUUUTT against St3gal1 | inactive: 0.408
58 | GCAGAUCUUGUGAUUAAUGTT against Ildr1 | inactive: 0.882
59 | GGAGUAAGACGGAAACGAGTT against Map3k1 | inactive: -0.662
60 | GGAAAAGGUGGAAGGCGGATT against Madd | inactive: -0.196
61 | GGUUGUUUGGAUUUUCUUCTT against Tars | inactive: 1.46
62 | CCGAUACAGGGACAGUCAUTT against Mrpl38 | inactive: -1.71
63 | CCUUAAACUUGGCCGAGGUTT against Trmt112 | inactive: 0.748
64 | CGUAUCAAGAAGUGCUGUGTT against Kcnk9 | inactive: -1.71
65 | GCCACCAAUGUGCUUACAUTT against Cfhr2 | inactive: 0.69
66 | GCUGGAGUUUCAGUCAAGGTT against Ctso | inactive: -0.355

Row | Sequence | z-score
67 | GUGGAAGACUUCACCGGACTT against Arxes1 | active: 2.01
68 | GGAACACAGUUAAGUGGAUTT against Vmn1r202 | inactive: 0.733
69 | GGGCUCUUUGAAGUUGGAUTT against Rpe65 | inactive: -0.393
70 | GGUGCCCGAAGUUAUGUUGTT against Ppp1r3f | inactive: 0.909
71 | CCCUAAUGAAUGGUCUCAUTT against Tmem74 | inactive: -0.176
72 | GCCUUUAGACUAAACAGCCTT against Slc7a6os | inactive: -0.54
73 | GGCGGUUCCCUCAGAAAAUTT against Pias1 | inactive: -0.0759
74 | GCCUCAGUACAAGGUAGCUTT against Slc30a3 | inactive: -0.318
75 | GGUCAAAGUCAAAGUUUUGTT against Crybg1 | inactive: 1.98
76 | GGUGAAAACAAUGACUUUGTT against Zbtb44 | inactive: 0.256
77 | GGGACUUAUGUCCAGGAAGTT against Agap3 | inactive: -1.09
78 | GGGUACAGUUAGAUUUUUUTT against Dut | inactive: -0.9
79 | GGUGUCCUUAAGUUUGCCCTT against Grcc10 | inactive: -0.735
80 | CCUUUCGUCAUGGUAUUAGTT against Taf3 | inactive: 0.414
81 | GGAAGACAUCAAGAUGUAATT against Rp1l1 | inactive: -1.28
82 | GGGAUGGAUCAUAGGAUUCTT against Taldo1 | inactive: 0.192
83 | AAGCACAAACUCACAGCCCTT against Hoxa4 | inactive: 0.0866
84 | GGAAAGAAAGGAGAGGAGGTT against Tmem18 | inactive: -1.1
85 | GGAGAAAAUCAAACCAGAUTT against Ddx19b | inactive: 0.823
86 | GGGUAAUGGGCCAGUAUCATT against Fam229b | active: -2.92
87 | GGAUGCAUGGCACAGCUUUTT against Olfr905 | inactive: 1.15
88 | GGACAAAAUCACCUCACUUTT against Olfr1135 | active: -3.29

Some of the entries so far, as comma-separated lines:
Row,Sequence,z-score
66,GCUGGAGUUUCAGUCAAGGTT against Ctso,inactive: -0.355
67,GUGGAAGACUUCACCGGACTT against Arxes1,active: 2.01
68,GGAACACAGUUAAGUGGAUTT against Vmn1r202,inactive: 0.733
69,GGGCUCUUUGAAGUUGGAUTT against Rpe65,inactive: -0.393
70,GGUGCCCGAAGUUAUGUUGTT against Ppp1r3f,inactive: 0.909
71,CCCUAAUGAAUGGUCUCAUTT against Tmem74,inactive: -0.176
72,GCCUUUAGACUAAACAGCCTT against Slc7a6os,inactive: -0.54
73,GGCGGUUCCCUCAGAAAAUTT against Pias1,inactive: -0.0759
74,GCCUCAGUACAAGGUAGCUTT against Slc30a3,inactive: -0.318
75,GGUCAAAGUCAAAGUUUUGTT against Crybg1,inactive: 1.98
76,GGUGAAAACAAUGACUUUGTT against Zbtb44,inactive: 0.256
77,GGGACUUAUGUCCAGGAAGTT against Agap3,inactive: -1.09
78,GGGUACAGUUAGAUUUUUUTT against Dut,inactive: -0.9
79,GGUGUCCUUAAGUUUGCCCTT against Grcc10,inactive: -0.735
80,CCUUUCGUCAUGGUAUUAGTT against Taf3,inactive: 0.414
81,GGAAGACAUCAAGAUGUAATT against Rp1l1,inactive: -1.28
82,GGGAUGGAUCAUAGGAUUCTT against Taldo1,inactive: 0.192
83,AAGCACAAACUCACAGCCCTT against Hoxa4,inactive: 0.0866
84,GGAAAGAAAGGAGAGGAGGTT against Tmem18,inactive: -1.1
85,GGAGAAAAUCAAACCAGAUTT against Ddx19b,inactive: 0.823

Next part:

Row | Sequence | z-score
89 | GCGAAUUUGAGUUGAGGCUTT against Bmp2 | inactive: -0.116
90 | CCAGUGGAAAUAACUUGUGTT against Fam53a | inactive: 1.58
91 | CCAUCAAACAGAUCUUAUUTT against Ube2i | inactive: -0.0948
92 | GCGACAACGAUUUUGAAAUTT against Rsu1 | inactive: 0.158
93 | UUCUGUCCAUCGUGAUCAATT against Sctr | inactive: -0.422
94 | GGAUUUGGAGUAGAUCAAUTT against Tial1 | inactive: 0.638
95 | GCCAAACAUUGGUGGACAUTT against H2-D1 | inactive: 0.835
96 | GGAACUGAAAUUCAGUUGGTT against Azin1 | inactive: 0.218
97 | CCUGCUCAAAGUAAGUUACTT against Ces5a | inactive: -0.938
98 | GGAGAGUUGAUGUUUGAUGTT against Paxip1 | inactive: -0.625
99 | GGUGAUCUUAGAUUUGAUUTT against Qsox2 | inactive: -0.401
100 | CUUUUGGUAUUGCAGAAUGTT against Olfr972 | inactive: -1.92
101 | CCAUUCCCAAUUGGUGUGATT against Olfr435 | inactive: -0.893
102 | GGGCUGCAUAUGACAAGGUTT against Dnajc17 | inactive: -0.279
103 | GGGUAAUAGACCAUUUCUUTT against Olfr124 | inactive: 0.255
104 | GGAAGGCAUAUGUUUGUGUTT against Asf1a | inactive: 1.4
105 | GGAGCUGGAGUACGACUACTT against Tmem30b | inactive: -0.891
106 | CCAUAGUGGAAUCAAGGCUTT against Olfr1079 | inactive: -0.318
107 | CCAUGAGCGGAUAAGACUCTT against Zfyve1 | inactive: 0.108
